{"source": "PubChem BioAssay AID540276", "about": "(National Center for Advancing Translational Sciences (NCATS), 2011)", "note": "“And” between values parts separate entries of the source, which are not always exact repeats. Identical values can stand only once. Out of some 300,000 compounds screened, about 5,400 (1.8%) were called active. The inconclusive results got no clear call from the source; some entries with a clear call stand among them for comparison. Calls come from the whole dose curve; tested in HEK293 cells. Potencies of inconclusive entries are doubtful fits and often do not repeat.", "data": [{"assay": "qHTS for inhibitors of binding or entry into cells for Marburg Virus; note: potency is the fitted concentration of half-maximal effect", "settings": "Marburg virus pseudotyped entry inhibition, cell reporter; series mostly up to 37.8 µM", "values": [{"compound": "CCOC(=O)CC1(NC(=O)C2CCC(=O)N(Cc3ccccc3OC)C2)CCCCC1", "note": "(stereo not drawn)", "Potency": "inactive"}, {"compound": "Cc1ncsc1CCOC(=O)C1C2CC3CC(C2)CC1C3", "note": "(stereo not drawn)", "Potency": "inactive"}, {"compound": "Cc1ccc2nc(N(CCCN(C)C)C(=O)CS(=O)(=O)c3ccccc3)sc2c1", "Potency": "inconclusive: 6.31 µM [activator, single point]"}, {"compound": "CS(=O)(=O)N(CC(=O)N1CCCCC1)c1cccc(F)c1", "Potency": "inactive"}, {"compound": "CN(CCCNC(=O)CCc1cn(C)c2ccccc12)C1CCCCC1", "Potency": "inconclusive: 8.91 µM [inhibitor, partial curve, poor fit]"}, {"compound": "CCCc1c(OCCCOc2ccc(OCC(=O)O)cc2)ccc(C(C)=O)c1O", "Potency": "inconclusive: 29.1 µM [activator, single point] and inconclusive: 3.98 µM [inhibitor, full curve]"}, {"compound": "O=C(/C=C/c1ccc(Cl)cc1Cl)NC(=S)Nc1ccc(CN2CCOCC2)cc1", "Potency": "inconclusive: 1.26 µM [inhibitor, single point]"}, {"compound": "CCOc1ccc(NC(=O)C2CC(=O)N(c3cc(C)cc(C)c3)C2)cc1", "note": "(stereo not drawn)", "Potency": "inconclusive: 15.8 µM [inhibitor, partial curve, poor fit]"}, {"compound": "CC(C)CN(C(=O)CN1CCN(c2ccc(O)cc2)CC1)c1c(N)n(CC(C)C)c(=O)[nH]c1=O", "Potency": "inconclusive: 1.46 µM [inhibitor, full curve, poor fit]"}, {"compound": "CC(=O)C1=C(C)C[C@@]2(CC1)C(=O)[C@H](Cc1ccccc1)N(Cc1ccccc1)S2(=O)=O", "Potency": "inconclusive: 9.95 µM [activator, single point]"}, {"compound": "COC1CCN(C(=O)c2ccc(OC3CCN(CCc4ccccc4)CC3)cc2)CC1", "Potency": "inactive"}, {"compound": "Cc1ccc(-n2nc(C)c3c(-c4cccs4)c(C#N)c(N)nc32)cc1", "Potency": "inactive"}, {"compound": "c1ccc(N2CCN(c3nc4cc5c(cc4s3)OCCO5)CC2)cc1", "Potency": "inactive"}, {"compound": "Cc1ccc(NC(=O)CC(=O)NCCN2CCOCC2)cc1", "Potency": "inconclusive: 23.1 µM [activator, single point]"}, {"compound": "COc1ccc(CNCCC(c2ccc(OC(C)C)cc2)C(C)C)cc1OC", "note": "(stereo not drawn)", "Potency": "inconclusive: 18.3 µM [inhibitor, partial curve, poor fit]"}, {"compound": "CCOC(=O)c1c(C)[nH]c(C)c1C(=O)CSc1nnc(-c2ccco2)n1Cc1ccccc1", "Potency": "inactive"}, {"compound": "CCc1nc(SCC(=O)Nc2cc(C)ccc2OC)c2c(C)c(C)sc2n1", "Potency": "inconclusive: 2.82 µM [inhibitor, single point]"}, {"compound": "O=C(O)CSC(NC(=O)c1cccnc1)(C(F)(F)F)C(F)(F)F", "Potency": "inconclusive: 31.6 µM [activator, single point]"}, {"compound": "CCOC(=O)C1=C(C)N(C)C(C)=C(C(=O)OCC)C1c1ccc(Cl)cc1", "Potency": "inconclusive: 35.5 µM [inhibitor, partial curve, poor fit]"}, {"compound": "CCOC(=O)[C@]1(C#N)[C@@H]2C=CC(C(C)=O)=CN2[C@@H](C(N)=O)[C@@H]1c1ccsc1", "Potency": "inconclusive: 20 µM [activator, partial curve, poor fit]"}, {"compound": "CCOc1ccccc1/C=C/C(=O)NCC(=O)N1CCC(N(C)C2CCCCC2C)CC1", "note": "(stereo not drawn)", "Potency": "inactive"}, {"compound": "CC(OC(=O)c1ccccc1C(=O)N(C)c1ccccc1)C(=O)Nc1ccc(C(N)=O)cc1", "note": "(stereo not drawn)", "Potency": "inactive"}, {"compound": "COc1cccc(S(=O)(=O)NCc2ccc(C(=O)N3CCN(Cc4ccccc4)CC3)cc2)c1", "Potency": "inconclusive: 3.55 µM [inhibitor, full curve, poor fit]"}, {"compound": "Cc1ccc(-c2csc3ncnc(Nc4ccc(N5CCOCC5)cc4)c23)cc1", "Potency": "inconclusive: 10 µM [inhibitor, partial curve]"}, {"compound": "Cc1ccc(C(CNC(=O)Nc2ccc(Cl)cc2)N2CCN(C)CC2)cc1", "note": "(stereo not drawn)", "Potency": "inconclusive: 11.2 µM [inhibitor, partial curve, poor fit]"}, {"compound": "O=C(/C=C/Nc1ccccc1)C(F)(F)F", "Potency": "inconclusive: 35.5 µM [activator, single point]"}, {"compound": "COc1ccc(/C=C/C(=O)Nc2ccc3nc4c(c(Nc5ccc(OC)c(OC)c5)c3c2)CCCC4)cc1", "Potency": "inconclusive: 1.58 µM [inhibitor, full curve, poor fit]"}, {"compound": "COc1ccc(-c2noc(CSc3nnc(Cc4ccccc4)n3-c3cccc(C)c3)n2)cc1", "Potency": "inactive"}, {"compound": "CC(=O)c1cccc(S(=O)(=O)NC2CCCCCC2)c1", "Potency": "inconclusive: 1 µM [inhibitor, full curve, poor fit]"}, {"compound": "CCCCNC(=S)Nc1cccc(S(=O)(=O)NC2=NCCC2)c1", "Potency": "inconclusive: 0.501 µM [inhibitor, single point]"}, {"compound": "CCOC(=O)Cc1c(C)nc2c(-c3ccc(Cl)cc3)c(C(F)(F)F)nn2c1C", "Potency": "inactive"}, {"compound": "CCCc1nn2cc(-c3ccc(C)c(C)c3)nc2s1", "Potency": "inactive"}, {"compound": "COc1cccc(/C=C/C2=CC(C)(C)NC(=S)N2)c1", "Potency": "inactive"}, {"compound": "COc1ccc(Nc2nc(NCc3ccco3)nc(N3CCOCC3)n2)cc1", "Potency": "active: 2.82 µM"}, {"compound": "O=C1CCCCN1CC(=O)N1CCCC(Nc2ccc(F)cc2)C1", "note": "(stereo not drawn)", "Potency": "inconclusive: 31.6 µM [activator, partial curve, poor fit]"}, {"compound": "CCOc1cc(CNCCSc2nnnn2C)cc(Br)c1OCc1ccccc1F", "Potency": "inconclusive: 29.1 µM [inhibitor, single point]"}, {"compound": "CCOc1ccc2c(c1)[N+](C)(C)C(C)(C)C=C2C", "Potency": "inconclusive: 14.1 µM [inhibitor, single point]"}, {"compound": "Cc1cc2ncn(/N=C/c3cccnc3)c2cc1C", "Potency": "inactive"}, {"compound": "COc1ccc(C(=O)n2nnc3ccccc32)cc1Br", "Potency": "inconclusive: 32.6 µM [activator, partial curve, poor fit]"}, {"compound": "CC(=O)c1c(C)[nH]c(C(=O)COC(=O)c2cccc(S(=O)(=O)N(C)c3ccccc3)c2)c1C", "Potency": "inconclusive: 29.1 µM [inhibitor, single point]"}, {"compound": "CCN(CC)CCn1c(=N)n(CC(O)c2ccco2)c2ccccc21", "note": "(stereo not drawn)", "Potency": "inconclusive: 7.31 µM [inhibitor, partial curve, poor fit]"}, {"compound": "CCOc1ccc(S(=O)(=O)N2CCN(C(=O)C3CSC4(C)CCC(=O)N34)CC2)cc1", "note": "(stereo not drawn)", "Potency": "inactive"}, {"compound": "CCS(=O)(=O)N1Cc2ccccc2CC1C(=O)NCC12CC3CC(CC(C3)C1)C2", "note": "(stereo not drawn)", "Potency": "inconclusive: 29.1 µM [inhibitor, single point]"}, {"compound": "Cc1ccc(-c2cc(-c3ccccc3[N+](=O)[O-])[nH]n2)c(O)c1", "Potency": "inactive"}, {"compound": "COc1cc(C2NC(=O)NC(C)=C2C(=O)OC2CCCCC2)cc(Cl)c1O", "note": "(stereo not drawn)", "Potency": "inconclusive: 22.4 µM [inhibitor, single point]"}, {"compound": "O=C(c1ccc2c(=O)n(Cc3ccccc3)c(=S)[nH]c2c1)N1CCCC1", "Potency": "inconclusive: 2.51 µM [inhibitor, full curve, poor fit]"}, {"compound": "CC(=O)Nc1ccc(NC(=O)CSc2nnc(N)n2-c2ccccc2)cc1", "Potency": "inactive"}, {"compound": "O=C(Nc1cc(S(=O)(=O)N2CCCC2)ccc1OCC(F)(F)F)c1ccc(F)cc1", "Potency": "inconclusive: 35.5 µM [activator, partial curve, poor fit]"}, {"compound": "COCc1cc(=O)[nH]c(/N=C(\\N)Nc2ccc(C)cc2)n1", "Potency": "inconclusive: 1.3 µM [inhibitor, full curve, poor fit]"}, {"compound": "c1ccc2c(c1)ncc1nncn12", "Potency": "inconclusive: 6.31 µM [activator, single point]"}, {"compound": "COc1cccc(Oc2cn[nH]c2-c2ccc(OC)cc2O)c1", "Potency": "inconclusive: 15.8 µM [inhibitor, single point]"}, {"compound": "O=c1[nH]c2ccc(NCc3ccc(-c4ccc(F)cc4)o3)cc2[nH]1", "Potency": "inactive"}, {"compound": "CCC(O)C1CCN(Cc2cn(-c3ccc(OC)cc3)nc2-c2cccc(F)c2)CC1", "note": "(stereo not drawn)", "Potency": "inconclusive: 17.8 µM [inhibitor, partial curve, poor fit]"}, {"compound": "O=C(Nc1ccnn1C1CCN(Cc2cc(Cl)ccc2O)CC1)c1cccnc1", "Potency": "inconclusive: 3.16 µM [activator, partial curve, poor fit]"}, {"compound": "COc1ccc(Cn2c(SCc3ccc(C)cc3)nc3cc(OC)c(OC)cc3c2=N)cc1Cl", "Potency": "active: 2.82 µM"}, {"compound": "N/N=c1\\sc2ccccc2n1-c1ccccc1", "Potency": "inactive"}, {"compound": "CC(C)CCSc1nc(N)c(C#N)cc1C#N", "Potency": "inconclusive: 0.231 µM [activator, partial curve, poor fit]"}, {"compound": "CCN(CC)S(=O)(=O)c1ccc(NC(=O)C(C)N(c2ccc(OC)cc2)S(C)(=O)=O)cc1", "note": "(stereo not drawn)", "Potency": "inactive"}, {"compound": "COc1ccc(CCNC(=O)CN(CCc2ccccc2)S(C)(=O)=O)cc1OC", "Potency": "inconclusive: 7.94 µM [inhibitor, partial curve, poor fit]"}, {"compound": "CS/C(N)=N/N=C/c1ccc([N+](=O)[O-])cc1", "Potency": "inactive"}, {"compound": "O=[N+]([O-])c1ccc(Cl)cc1Sc1nc2ccccc2o1", "Potency": "inactive"}, {"compound": "CCOC(=O)C1=C(C)NC(=O)N(C(C)=O)C1c1ccc(Cl)cc1", "note": "(stereo not drawn)", "Potency": "inconclusive: 29.1 µM [inhibitor, single point]"}, {"compound": "Cc1ccc(NC(=O)C2CCN(C(=O)NCc3ccccc3)CC2)cc1C", "Potency": "inactive"}, {"compound": "Cc1ccc(-c2ccccc2NC(=O)CCl)o1", "Potency": "inconclusive: 35.5 µM [inhibitor, single point]"}, {"compound": "Cc1cc(C)cc(N/C(N)=N/c2nc(C)cc(C)n2)c1", "Potency": "inconclusive: 12.6 µM [inhibitor, partial curve, poor fit]"}, {"compound": "COc1cccc2c1C1COC3C4CC(C(=O)O)C(C(C2)N13)N4C", "note": "(stereo not drawn)", "Potency": "inconclusive: 3.16 µM [inhibitor, full curve, poor fit]"}, {"compound": "O=C(Nc1cccnc1)c1cccnc1Cl", "Potency": "inactive"}, {"compound": "Cc1ccc(C)c(NC(=O)c2cnn(-c3ccccc3)c2C)c1", "Potency": "inconclusive: 17.8 µM [inhibitor, single point]"}]}]}
